Source: the supplement of paper PMC10849652
The other results are listed elsewhere or left out.

Chains of the proteins cited; added tags and fusions are not shown. Lines headed by an entry give the natural chain unless they say otherwise; changes in a name come on top.
UniProt Q9ULP9: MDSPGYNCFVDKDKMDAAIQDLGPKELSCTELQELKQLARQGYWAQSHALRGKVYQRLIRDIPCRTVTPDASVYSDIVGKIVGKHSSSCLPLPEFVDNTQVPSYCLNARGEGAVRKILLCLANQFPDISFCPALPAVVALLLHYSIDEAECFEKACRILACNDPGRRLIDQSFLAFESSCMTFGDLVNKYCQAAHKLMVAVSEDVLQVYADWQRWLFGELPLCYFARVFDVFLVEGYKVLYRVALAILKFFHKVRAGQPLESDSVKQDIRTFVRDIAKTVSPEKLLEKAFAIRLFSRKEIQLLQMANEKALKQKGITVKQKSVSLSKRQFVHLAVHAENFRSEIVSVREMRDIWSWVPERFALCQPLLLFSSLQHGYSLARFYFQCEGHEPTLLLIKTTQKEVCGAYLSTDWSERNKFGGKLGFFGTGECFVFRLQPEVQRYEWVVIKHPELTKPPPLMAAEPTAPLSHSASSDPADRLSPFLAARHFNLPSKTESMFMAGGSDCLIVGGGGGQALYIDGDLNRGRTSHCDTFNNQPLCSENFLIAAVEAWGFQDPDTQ
UniProt Q9Y6I9: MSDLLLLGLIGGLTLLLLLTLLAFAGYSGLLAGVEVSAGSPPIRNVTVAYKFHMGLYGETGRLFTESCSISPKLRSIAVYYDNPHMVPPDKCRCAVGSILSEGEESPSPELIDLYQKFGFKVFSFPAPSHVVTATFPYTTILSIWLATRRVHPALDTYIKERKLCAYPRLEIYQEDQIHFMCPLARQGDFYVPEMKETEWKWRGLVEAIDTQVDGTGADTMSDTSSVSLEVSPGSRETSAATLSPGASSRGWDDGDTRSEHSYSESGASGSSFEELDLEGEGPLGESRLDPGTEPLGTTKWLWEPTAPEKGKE
UniProt Q8NDF8: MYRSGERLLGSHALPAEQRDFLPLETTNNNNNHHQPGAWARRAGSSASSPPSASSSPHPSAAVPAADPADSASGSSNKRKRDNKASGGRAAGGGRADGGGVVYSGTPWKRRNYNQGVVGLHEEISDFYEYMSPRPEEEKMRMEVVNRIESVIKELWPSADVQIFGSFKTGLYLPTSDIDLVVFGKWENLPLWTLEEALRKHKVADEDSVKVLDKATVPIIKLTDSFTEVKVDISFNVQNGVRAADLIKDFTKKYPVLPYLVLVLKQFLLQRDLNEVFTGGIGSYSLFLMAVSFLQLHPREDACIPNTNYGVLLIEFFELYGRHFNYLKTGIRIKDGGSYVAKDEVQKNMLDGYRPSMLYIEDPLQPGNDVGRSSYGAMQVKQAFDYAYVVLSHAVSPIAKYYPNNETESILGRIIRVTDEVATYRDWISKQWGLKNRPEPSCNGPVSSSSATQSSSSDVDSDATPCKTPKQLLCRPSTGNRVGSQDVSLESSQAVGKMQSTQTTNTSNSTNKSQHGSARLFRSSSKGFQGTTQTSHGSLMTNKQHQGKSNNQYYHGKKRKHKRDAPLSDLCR
UniProt Q96MN5: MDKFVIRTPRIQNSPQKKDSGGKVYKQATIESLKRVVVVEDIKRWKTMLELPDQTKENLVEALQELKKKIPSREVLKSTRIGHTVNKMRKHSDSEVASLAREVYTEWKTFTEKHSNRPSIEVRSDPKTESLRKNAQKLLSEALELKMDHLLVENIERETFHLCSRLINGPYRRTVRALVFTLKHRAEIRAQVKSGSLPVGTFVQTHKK
UniProt Q15554: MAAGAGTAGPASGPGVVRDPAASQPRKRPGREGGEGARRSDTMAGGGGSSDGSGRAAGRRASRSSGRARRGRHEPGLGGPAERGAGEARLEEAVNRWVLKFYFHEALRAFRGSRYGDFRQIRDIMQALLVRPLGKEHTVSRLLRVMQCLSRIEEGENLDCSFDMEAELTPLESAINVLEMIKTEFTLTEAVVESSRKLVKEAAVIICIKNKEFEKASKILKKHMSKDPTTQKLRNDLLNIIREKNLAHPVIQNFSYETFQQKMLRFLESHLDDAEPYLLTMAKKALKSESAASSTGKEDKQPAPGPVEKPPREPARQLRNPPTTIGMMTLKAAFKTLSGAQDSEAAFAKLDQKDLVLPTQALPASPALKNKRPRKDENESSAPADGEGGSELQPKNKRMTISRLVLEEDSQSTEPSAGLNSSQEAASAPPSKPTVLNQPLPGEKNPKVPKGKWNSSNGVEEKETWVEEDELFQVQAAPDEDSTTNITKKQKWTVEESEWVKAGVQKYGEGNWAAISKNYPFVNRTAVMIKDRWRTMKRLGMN
UniProt Q13428: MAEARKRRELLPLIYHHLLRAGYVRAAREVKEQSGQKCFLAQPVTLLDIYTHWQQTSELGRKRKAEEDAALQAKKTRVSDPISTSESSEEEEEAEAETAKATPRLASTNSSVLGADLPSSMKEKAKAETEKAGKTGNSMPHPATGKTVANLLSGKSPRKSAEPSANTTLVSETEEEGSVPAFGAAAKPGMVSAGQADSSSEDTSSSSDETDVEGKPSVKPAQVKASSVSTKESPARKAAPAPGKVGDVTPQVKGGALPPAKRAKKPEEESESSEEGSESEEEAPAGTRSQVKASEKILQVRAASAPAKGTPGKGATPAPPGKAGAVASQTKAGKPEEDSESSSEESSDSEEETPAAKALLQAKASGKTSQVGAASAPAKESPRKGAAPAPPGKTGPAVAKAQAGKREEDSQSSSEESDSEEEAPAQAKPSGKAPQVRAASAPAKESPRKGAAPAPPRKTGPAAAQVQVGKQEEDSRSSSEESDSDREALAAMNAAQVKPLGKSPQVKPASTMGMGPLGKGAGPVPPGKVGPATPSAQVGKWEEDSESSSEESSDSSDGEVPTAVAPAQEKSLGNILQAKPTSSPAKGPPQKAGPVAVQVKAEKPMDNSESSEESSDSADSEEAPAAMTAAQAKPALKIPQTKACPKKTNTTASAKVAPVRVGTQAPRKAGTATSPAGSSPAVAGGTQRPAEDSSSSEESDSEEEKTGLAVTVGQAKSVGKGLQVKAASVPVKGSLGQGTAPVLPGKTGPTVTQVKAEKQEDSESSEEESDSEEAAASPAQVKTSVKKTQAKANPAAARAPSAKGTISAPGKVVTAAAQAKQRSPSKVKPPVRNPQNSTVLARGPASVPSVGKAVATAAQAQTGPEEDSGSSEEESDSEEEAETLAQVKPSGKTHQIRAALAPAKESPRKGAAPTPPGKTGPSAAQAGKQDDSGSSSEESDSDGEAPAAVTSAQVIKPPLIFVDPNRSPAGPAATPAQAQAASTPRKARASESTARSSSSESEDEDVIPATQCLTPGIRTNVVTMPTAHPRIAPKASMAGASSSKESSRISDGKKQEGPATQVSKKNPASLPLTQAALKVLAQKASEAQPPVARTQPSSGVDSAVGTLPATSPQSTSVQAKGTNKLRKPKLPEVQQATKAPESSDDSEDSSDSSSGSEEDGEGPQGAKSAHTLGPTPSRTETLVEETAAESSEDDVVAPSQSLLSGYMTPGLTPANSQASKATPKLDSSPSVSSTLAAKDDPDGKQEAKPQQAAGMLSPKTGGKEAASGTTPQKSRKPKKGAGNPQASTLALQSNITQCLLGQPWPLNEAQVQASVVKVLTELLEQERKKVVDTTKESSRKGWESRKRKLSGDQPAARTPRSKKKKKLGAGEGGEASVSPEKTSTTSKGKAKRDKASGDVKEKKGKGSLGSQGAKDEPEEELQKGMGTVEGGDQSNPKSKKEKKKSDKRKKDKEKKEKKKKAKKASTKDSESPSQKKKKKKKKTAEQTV
UniProt Q86VP1, whole entry, looked up: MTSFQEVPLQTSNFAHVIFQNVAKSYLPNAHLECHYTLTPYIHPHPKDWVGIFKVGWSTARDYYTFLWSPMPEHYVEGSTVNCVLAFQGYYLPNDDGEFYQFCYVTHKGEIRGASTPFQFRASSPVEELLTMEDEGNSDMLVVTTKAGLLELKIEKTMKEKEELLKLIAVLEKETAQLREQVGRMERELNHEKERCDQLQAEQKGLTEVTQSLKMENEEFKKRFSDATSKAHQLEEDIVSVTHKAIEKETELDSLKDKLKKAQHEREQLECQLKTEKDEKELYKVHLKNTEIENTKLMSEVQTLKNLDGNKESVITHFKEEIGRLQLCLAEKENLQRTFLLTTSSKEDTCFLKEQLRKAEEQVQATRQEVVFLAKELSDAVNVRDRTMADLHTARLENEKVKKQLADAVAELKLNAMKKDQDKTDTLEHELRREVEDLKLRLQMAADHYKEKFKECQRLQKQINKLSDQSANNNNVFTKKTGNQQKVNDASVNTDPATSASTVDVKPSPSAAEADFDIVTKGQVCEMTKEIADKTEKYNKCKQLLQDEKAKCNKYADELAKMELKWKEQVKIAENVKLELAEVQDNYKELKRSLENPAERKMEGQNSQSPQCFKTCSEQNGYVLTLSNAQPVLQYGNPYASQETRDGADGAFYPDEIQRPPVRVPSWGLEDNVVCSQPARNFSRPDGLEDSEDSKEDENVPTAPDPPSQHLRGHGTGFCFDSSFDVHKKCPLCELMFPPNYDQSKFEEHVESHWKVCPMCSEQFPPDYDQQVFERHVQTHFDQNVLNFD
UniProt Q9UL54: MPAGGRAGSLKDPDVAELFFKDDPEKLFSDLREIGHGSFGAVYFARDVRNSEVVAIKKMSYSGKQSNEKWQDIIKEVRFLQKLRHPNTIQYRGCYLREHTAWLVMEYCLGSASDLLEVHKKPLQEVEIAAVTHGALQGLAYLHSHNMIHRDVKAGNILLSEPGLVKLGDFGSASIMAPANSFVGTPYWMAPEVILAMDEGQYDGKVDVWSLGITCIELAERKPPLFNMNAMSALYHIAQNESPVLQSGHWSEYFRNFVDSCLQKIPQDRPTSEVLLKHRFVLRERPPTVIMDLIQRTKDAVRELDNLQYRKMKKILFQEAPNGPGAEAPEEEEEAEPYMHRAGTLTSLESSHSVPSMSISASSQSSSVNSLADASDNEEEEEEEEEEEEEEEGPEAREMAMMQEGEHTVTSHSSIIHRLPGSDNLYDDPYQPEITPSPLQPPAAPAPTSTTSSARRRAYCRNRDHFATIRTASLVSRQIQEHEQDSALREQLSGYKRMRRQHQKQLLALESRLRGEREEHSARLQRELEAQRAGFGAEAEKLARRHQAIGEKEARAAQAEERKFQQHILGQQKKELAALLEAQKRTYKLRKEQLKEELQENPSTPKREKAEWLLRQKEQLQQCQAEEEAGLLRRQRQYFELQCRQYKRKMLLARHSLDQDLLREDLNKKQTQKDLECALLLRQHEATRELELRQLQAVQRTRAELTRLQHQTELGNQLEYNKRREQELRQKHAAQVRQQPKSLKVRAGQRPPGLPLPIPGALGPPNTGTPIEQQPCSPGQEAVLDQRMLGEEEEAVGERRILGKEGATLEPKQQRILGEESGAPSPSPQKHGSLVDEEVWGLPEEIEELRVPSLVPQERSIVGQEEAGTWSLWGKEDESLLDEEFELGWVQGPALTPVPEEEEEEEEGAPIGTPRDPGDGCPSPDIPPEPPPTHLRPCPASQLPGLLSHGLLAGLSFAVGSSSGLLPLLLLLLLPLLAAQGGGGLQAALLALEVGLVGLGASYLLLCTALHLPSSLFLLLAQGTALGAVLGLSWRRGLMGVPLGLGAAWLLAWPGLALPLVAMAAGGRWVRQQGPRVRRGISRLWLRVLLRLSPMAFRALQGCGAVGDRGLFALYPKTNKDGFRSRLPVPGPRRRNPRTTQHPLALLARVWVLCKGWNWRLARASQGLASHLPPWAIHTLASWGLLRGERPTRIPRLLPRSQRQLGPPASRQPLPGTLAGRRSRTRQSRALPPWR
UniProt Q9BQ70: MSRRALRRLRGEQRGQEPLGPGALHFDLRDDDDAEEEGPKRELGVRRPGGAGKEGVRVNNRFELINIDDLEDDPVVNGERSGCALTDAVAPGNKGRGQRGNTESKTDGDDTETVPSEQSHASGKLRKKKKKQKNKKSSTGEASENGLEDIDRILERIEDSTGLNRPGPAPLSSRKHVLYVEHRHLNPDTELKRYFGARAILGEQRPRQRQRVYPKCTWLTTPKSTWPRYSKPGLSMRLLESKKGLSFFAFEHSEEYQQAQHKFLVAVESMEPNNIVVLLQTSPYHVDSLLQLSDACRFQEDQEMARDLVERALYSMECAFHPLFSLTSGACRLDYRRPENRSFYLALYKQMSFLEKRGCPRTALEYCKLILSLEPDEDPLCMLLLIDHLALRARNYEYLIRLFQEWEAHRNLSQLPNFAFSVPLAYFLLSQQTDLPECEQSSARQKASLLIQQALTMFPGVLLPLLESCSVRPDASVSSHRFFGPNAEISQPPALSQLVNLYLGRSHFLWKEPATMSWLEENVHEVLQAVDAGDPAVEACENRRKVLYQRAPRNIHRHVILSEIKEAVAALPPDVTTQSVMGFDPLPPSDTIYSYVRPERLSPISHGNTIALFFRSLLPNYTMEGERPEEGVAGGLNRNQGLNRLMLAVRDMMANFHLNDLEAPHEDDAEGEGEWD
UniProt Q15170: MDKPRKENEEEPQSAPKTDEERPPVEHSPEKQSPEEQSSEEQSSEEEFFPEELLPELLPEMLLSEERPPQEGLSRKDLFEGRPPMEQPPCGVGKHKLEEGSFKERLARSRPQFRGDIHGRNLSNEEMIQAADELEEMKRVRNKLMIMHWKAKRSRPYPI

What was measured:
Assay in all cases: log2 fold change, soluble protein after heating vs DMSO (PISA); higher = thermal stabilisation; K562 lysate, 10 uM; active = over 0.2 and 3.5 SD of the protein, either way, in both replicates (recomputed)
ibrutinib = compound: C=CC(=O)N1CCC[C@@H](n2nc(-c3ccc(Oc4ccccc4)cc3)c3c(N)ncnc32)C1 [ibrutinib]
Method in brief: (§1)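 Values give the log-two fold change in thermal stability against solvent controls, from duplicates. Crude K562 extract at 1 mg/mL protein, made by dounce homogenisation in PBS pH 7.4 with 1 mM MgCl2, was treated with 10 μM compound for 30 min. After 3 min heating across 48°C-58°C, aliquots were pooled, adjusted to 0.5% NP-40 at 4°C and centrifuged at 21,000xg for 90 min. The supernatant was measured by TMTpro 16plex LC-MS/MS with channel sums equalised.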

[1] = compound: CC(=O)c1cnc2ccc(-c3cc(Cl)c(O)c(Cl)c3)nc2c1N[C@H]1CC[C@H](CN(C)C)CC1
Method in brief: as §1

ralimetinib = compound: CC(C)(C)Cn1c(N)nc2ccc(-c3[nH]c(C(C)(C)C)nc3-c3ccc(F)cc3)nc21 [ralimetinib]
Method in brief: as §1

[2] = compound: CC(C)(O)CC(=O)NCCn1ccc2ncnc(Nc3ccc(Oc4cccc(C(F)(F)F)c4)c(Cl)c3)c21
Method in brief: as §1

[3] = compound: CC(C)C1=C2N=C(C=C(N2N=C1)NCC3=CC=CC=C3)NCCCCCCN
Method in brief: as §1

[4] = compound: CC1=C(C(CC(=O)N1)C2=CC=C(C=C2)C(F)(F)F)C(=O)NC3=C(C=C4C(=C3)C=NN4)F
Method in brief: as §1

[5] = compound: CC1=C(C2=C(C=C1)C(=O)C3=CC=CC=C3N2CCCN)C
Method in brief: as §1

[6] = compound: CC1=C(C=C(C=C1)NC(=O)C2=CC(=CC=C2)C(C)(C)C#N)NC3=CC4=C(C=C3)N=CN(C4=O)C
Method in brief: as §1

[7] = compound: CC1=C(C=C(C=C1)NC(=O)C2=CC(=CC=C2)N(C)C)NC(=O)C3=CC=C(C=C3)O
Method in brief: as §1

[8] = compound: CC1=CC=C(C=C1)SC2=C3C=C(SC3=CN=C2)C(=O)N
Method in brief: as §1

Measured: log2 fold change

TBP (UniProt P20226)
inactive: ibrutinib 0.051 | [1] 0.001 | ralimetinib 0.033 | [2] -0.103 | [3] -0.006 | [4] 0.594 | [5] -0.081 | [6] 0.028 | [7] -0.018 | [8] 0.031

TBC1D24 (UniProt Q9ULP9)
inactive: ibrutinib -0.044 | [1] -0.003 | ralimetinib 0.02 | [2] 0.021 | [3] 0.002 | [4] -0.014 | [5] 0.03 | [6] 0.008 | [7] 0.081 | [8] 0.026

TDP2 isoform 2 (UniProt O95551)
inactive: ibrutinib -0.01 | [1] 0.001 | ralimetinib 0 | [2] -0.011 | [3] 0.014 | [4] -0.015 | [5] 0.005 | [6] -0.015 | [7] 0.042 | [8] -0.01

TEX264 (UniProt Q9Y6I9)
inactive: ibrutinib -0.033 | [1] -0.006 | ralimetinib -0.028 | [2] 0.013 | [3] 0.439 | [4] -0.026 | [5] -0.011 | [6] 0.05 | [7] -0.037 | [8] -0.005

TEPSIN, A0A1B0GV70
inactive: ibrutinib -0.045 | [1] 0.096 | ralimetinib 0.05 | [2] -0.086 | [3] -0.113 | [4] -0.033 | [5] -0.048 | [6] 0.08 | [7] 0.037 | [8] 0.051

TENT4B isoform 5 (UniProt Q8NDF8)
inactive: ibrutinib -0.27 | ralimetinib 0.089 | [2] -0.012 | [3] 0.202 | [4] 0.146 | [6] 0.06 | [7] -0.05

TCEANC2 (UniProt Q96MN5)
inactive: ibrutinib 0.046 | ralimetinib -0.042 | [2] -0.07 | [3] 0.047 | [4] -0.069 | [5] 0.077 | [7] 0.014

TFPT (UniProt P0C1Z6)
inactive: ibrutinib 0.046 | [1] 0.1 | [3] -0.053 | [5] -0.145 | [8] -0.06

TCEAL4 isoform 2 (UniProt Q96EI5)
inactive: ibrutinib 0.013 | [1] 0.054 | [5] 0.007 | [6] 0.058 | [8] -0.003

TFAP4 (UniProt Q01664)
inactive: ibrutinib 0.057 | [1] 0.141 | ralimetinib 0.004 | [2] -0.26 | [3] -0.109 | [4] 0.046 | [6] 0.058 | [7] 0.038 | [8] 0.07

TEAD4 (UniProt Q15561)
inactive: ibrutinib 0.142 | [3] -0.109

TECPR1 isoform 4 (UniProt Q7Z6L1)
inactive: ibrutinib -0.019 | [1] 0.128 | [3] -0.075 | [5] -0.001 | [8] 0.12

TENT5C (UniProt Q5VWP2)
inactive: ibrutinib 0.059 | [1] -0.111 | ralimetinib -0.017 | [2] -0.03 | [3] 0.015 | [4] -0.021 | [6] 0.049 | [7] -0.029 | [8] -0.076

TERF2 (UniProt Q15554)
inactive: ibrutinib -0.068 | [1] 0.032 | ralimetinib -0.036 | [2] -0.016 | [3] -0.008 | [4] -0.029 | [5] 0 | [6] -0.033 | [7] -0.004 | [8] -0.035

TCOF1 isoform 3 (UniProt Q13428)
inactive: ibrutinib 0.11 | [1] 0.086 | [3] -0.034 | [6] 0.064 | [8] -0.333

TAX1BP1 isoform 2 (UniProt Q86VP1)
inactive: ibrutinib -0.005 | ralimetinib 0.073 | [2] -0.092 | [3] -0.069 | [4] -0.296 | [7] 0

Reprinted from the results shown (two entries):
TBC1D24 (UniProt Q9ULP9)
inactive: ibrutinib -0.044 | [1] -0.003 | ralimetinib 0.02 | [2] 0.021 | [3] 0.002 | [4] -0.014 | [5] 0.03 | [6] 0.008 | [7] 0.081 | [8] 0.026

TDP2 isoform 2 (UniProt O95551)
inactive: ibrutinib -0.01 | [1] 0.001 | ralimetinib 0 | [2] -0.011 | [3] 0.014 | [4] -0.015 | [5] 0.005 | [6] -0.015 | [7] 0.042 | [8] -0.01

Following part.

TAOK2 (UniProt Q9UL54)
inactive: ibrutinib -0.009 | [1] 0.151 | ralimetinib -0.035 | [2] -0.033 | [4] -0.072 | [5] -0.053 | [6] -0.037 | [7] -0.044 | [8] 0.024

TCHP (UniProt Q9BT92)
inactive: ibrutinib 0.06 | ralimetinib 0.003 | [2] -0.035 | [3] -0.007 | [4] 0.021 | [5] -0.026 | [6] -0.024 | [7] 0.067

TCF25 (UniProt Q9BQ70)
inactive: ibrutinib 0.023 | ralimetinib 0.01 | [2] 0 | [3] 0.038 | [4] 0.014 | [5] -0.091 | [6] -0.029 | [7] 0.052

TCEAL1 isoform 2 (UniProt Q15170)
inactive: ibrutinib 0.557 | [1] 0.123 | [8] 0.017

TBC1D20 isoform 3 (UniProt Q96BZ9)
inactive: ibrutinib 0.078 | [1] -0.016 | ralimetinib 0.001 | [2] -0.14 | [3] -0.082 | [5] 0.05 | [6] -0.171 | [7] 0.019 | [8] -0.005

TBCEL (UniProt Q5QJ74)
inactive: ibrutinib -0.148 | ralimetinib 0.151 | [2] -0.334 | [3] -0.091 | [4] 0.084 | [5] 0.022 | [7] -0.402

TAPBP isoform 3 (UniProt O15533)
inactive: ibrutinib 0.151 | [3] -0.01 | [5] -0.081 | [6] -0.022

TCF20 (UniProt Q9UGU0)
inactive: ibrutinib -0.025 | [1] 0.128 | [3] -0.317 | [5] -0.212 | [6] -0.004 | [8] -0.166
